Construct, isoform or probe ends are uncertain for at least one entry. At least one result comes from cells or an extract, where the contact may be indirect.
Tested on: PPARγ + RXRα
Experiment: EMSA
Settings: unlabeled self-competitor 0.05-5 uM also tested (outcome only in gel), LightShift chemiluminescent kit, 20 min incubation with nuclear extract, pH and temperature not given, protein in a lysate after overexpression, label: biotin 3' end

| Sequence | binding result |
| --- | --- |
| CTGAGTGGTAGGGTAAAGTTCAGCATGGGC (double strand) [Kbtbd11 PPRE2] | binds |
| CCATCCGTGTGACCTTTGGCCCCAGTGGGA (double strand) [Kbtbd11 PPRE1] | binds |
